Measurements taken from patent publication US7238801B2, “Phthalocyanine compound, method for production thereof, and near infrared absorbing dye and near infrared absorbing filter using same” (Nippon Shokubai Co., Ltd., priority 2002, dated 2007).

Experiment: Transmittance to visible light of diluted chloroform solution
Assay type: physicochemical
Settings: chloroform solution diluted to minimum transmittance 5–6% at >920 to 1050 nm, 1-cm quartz cell, JIS R3106
With “VOPc(PhS)8{2,6-(CH3)2PhO}4{(CH3)2CHO(CH2)3NH}4 [Example 9]” the “Transmittance to visible light (%)” value was 78%.
With “VOPc(PhS)8{2,6-(CH3)2PhO}4{CH3(CH2)17NH}4 [Example 19]” the “Transmittance to visible light (%)” value was 78%.
In the case of “VOPc(PhS)8{2,6-(CH3)2PhO}4{(CH3CH2O(CH2)3NH}4 [Example 8]”, the “Transmittance to visible light (%)” value is reported as 76%.
With “VOPc(PhS}8{2,6-(CH3)2PhO}4[{CH3(CH2)2CH}2NCH2CH2NH]4 [Example 4]” the “Transmittance to visible light (%)” value was 76%.
In the case of “VOPc(PhS)8{2,6-(CH3)2PhO}4{CH3(CH2)3O(CH2)3NH}4 [Example 10]”, the “Transmittance to visible light (%)” value is reported as 77%.
For “VOPc(PhS)8{2,6-(CH3)2PhO}4{CH3(CH2)7NH}4 [Example 18]”, the “Transmittance to visible light (%)” value was 79%.
With “VOPc(PhS)8{2,6-(CH3)2PhO}4[{(CH3)2CH}2NCH2CH2NH]4 [Example 3]” the “Transmittance to visible light (%)” value was 76%.
For “VOPc(PhS)8{2,6-(CH3)2PhO}4{CH3(CH2)3CH(C2H5)CH2O(CH2)3NH}4 [Example 11]”, the “Transmittance to visible light (%)” value was 75%.
In the case of “VOPc(PhS)8{2,6-(CH3)2PhO}4{CH3(CH2)5NH}4 [Example 15]”, the “Transmittance to visible light (%)” value is reported as 80%.
For “VOPc{2-(CH3O)PhS}8{2,6-(CH3)2PhO}4{(C2H5)2NCH2CH2NH}4 [Example 2]”, the “Transmittance to visible light (%)” value was 77%.
In the case of “VOPc(PhS)8{2,6-(CH3)2PhO}4{CH3(CH2)3CH(C2H5)CH2NH}4 [Example 16]”, the “Transmittance to visible light (%)” value is reported as 79%.
In the case of “VOPc(PhS)8{2,6-(CH3)2PhO}4{(C2H5)2NCH2CH2NH}4 [Example 1]”, the “Transmittance to visible light (%)” value is reported as 78%.
In the case of “VOPc{4-(CH3O)PhS}8{2,6-(CH3)2PhO}4{CH3(CH2)3CH(C2H5)CH2NH}4 [Example 17]”, the “Transmittance to visible light (%)” value is reported as 80%.
